Data from patent US20240173330A1, “USE OF ATR INHIBITORS IN COMBINATION WITH PARP INHIBITORS FOR TREATING CANCER” (Repare Therapeutics Inc., priority 2021, published 2024).
Some of these results come from one statement about several compounds together.

System: ATM CRISPR knockout clone (ATM−/−) of the MIAPACA2 pancreatic carcinoma cell line
Experiment: 48 h combination treatment of ATM CRISPR knockout clone
Type: cell-based
Details: 48 h treatment with combination of PARP inhibitor and ATR inhibitor

Row | Compound | synergistic sensitization (fold) [×]
1 | CCc1cc2ncc(CN3CCN(c4ccc(C(=O)NC)nc4)CC3)cc2[nH]c1=O [5-[4-[(7-ethyl-6-oxo-5H-1,5-naphthyridin-3-yl)methyl]piperazin-1-yl]-N-methyl-pyridine-2-carboxamide] | > 300
2 | C[C@@H]1COCCN1c1cc([C@@]2(O)C[C@H]3CC[C@@H](C2)O3)c2cnn(-c3cc[nH]n3)c2n1 [compound 121] | > 300
